Data taken from the supplement of paper PMC10689618.
The list shows a part of the results. Single values are uncertain, as repeats are few or missing.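 Labelled rat cortical synaptosomes were engulfed by primary human fetal astrocytes. Engulfment equaled a red/green ratio, corrected for calcein live-cell signal and normalized to the plate median. Compounds were toxic when calcein dropped over 30%, and reduced phagocytosis when below 70% of the median above 5 µM.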

Tests used:
Human fetal astrocytes [1] = assay: loss of total cells relative to no-compound high-control median (toxicity); higher = more toxic (fewer cells); conditions: 24 h
Human fetal astrocytes [2] = assay: synaptosome phagocytosis (pHrodo/calcein intensity ratio) relative to plate median of data wells; higher = more phagocytosis; conditions: 24 h

Compound | loss of total cells (Human fetal astrocytes [1]; 1.39 µM) [%] | loss of total cells (Human fetal astrocytes [1]; 2.78 µM) [%] | loss of total cells (Human fetal astrocytes [1]; 5.56 µM) [%] | loss of total cells (Human fetal astrocytes [1]; 11.11 µM) [%] | loss of total cells (Human fetal astrocytes [1]; 22.22 µM) [%] | synaptosome phagocytosis (Human fetal astrocytes [2]; 1.39 µM) [%] | synaptosome phagocytosis (Human fetal astrocytes [2]; 2.78 µM) [%] | synaptosome phagocytosis (Human fetal astrocytes [2]; 5.56 µM) [%] | synaptosome phagocytosis (Human fetal astrocytes [2]; 11.11 µM) [%] | synaptosome phagocytosis (Human fetal astrocytes [2]; 22.22 µM) [%]
CO[C@H]1[C@H](O)[C@H](O[C@H]2CC[C@@]3(C=O)[C@H](CC[C@@H]4[C@@H]3CC[C@]3(C)[C@@H](C5=CC(=O)OC5)CC[C@]43O)C2)O[C@@H](C)[C@@H]1O | 15.5 | 0.4 | 7.2 | -7.9 | 9.8 | 60.7 | 18.4 | 18.5 | 39.2 | 21.9
COc1cc2c(cc1O)CCN[C@@H]2C | 3.3 | 14.1 | 8.8 | 20.3 | 8.1 | 137 | 105 | 110 | 129 | 86.1
COc1ccc(CN2CCNCC2)c(OC)c1OC | 17 | 32.1 | 26.1 | 10.5 | 13.6 | 138 | 118 | 79.9 | 99.3 | 130
COc1cc([C@@H]2c3cc4c(cc3[C@@H](O)[C@H]3COC(=O)[C@H]23)OCO4)cc(OC)c1O | 3.3 | 11.9 | 12.5 | 22.3 | 23 | 108 | 50.1 | 120 | 77.1 | 60.7
COc1ccc2c(c1)[C@]13CCCC[C@@H]1[C@H](C2)N(C)CC3 | 24.6 | 9.8 | 0 | 15.9 | 3.3 | 119 | 95.3 | 101 | 78.3 | 70.2
COC[C@]12CN(C=O)[C@@H]3[C@@H]4[C@H](OC)[C@H]1[C@@]3([C@@H](OC)C[C@H]2O)[C@@H]1C[C@@]2(O)[C@H](OC(=O)c3ccccc3)[C@@H]1[C@]4(OC(C)=O)[C@@H](O)[C@@H]2OC | 20.7 | 0 | -0.8 | 45.8 | -4.8 | 128 | 84.4 | 116 | 113 | 80
C=CCSSCC=C | -4.1 | 1.8 | 4.4 | 22.3 | 7.4 | 109 | 101 | 102 | 109 | 90.7
CC(=O)O[C@H]1C[C@@H]2CC[C@@H]3[C@H](CC[C@@]4(C)[C@H]3C[C@H]([N+]3(C)CCCCC3)[C@@H]4OC(C)=O)[C@@]2(C)C[C@@H]1[N+]1(C)CCCCC1 | -39.5 | 17.5 | 5.6 | 49.5 | 2.2 | 107 | 157 | 79.7 | 176 | 130
C[C@H]1O[C@@H](O[C@H]2[C@@H](O)C[C@H](O[C@H]3[C@@H](O)C[C@H](O[C@H]4CC[C@@]5(C)[C@H](CC[C@@H]6[C@@H]5CC[C@]5(C)[C@@H](C7=CC(=O)OC7)[C@@H](O)C[C@]65O)C4)O[C@@H]3C)O[C@@H]2C)C[C@H](O)[C@@H]1O | 11.2 | 18.4 | 18.1 | 11.3 | -0.8 | 39.1 | 43.5 | 38 | 42.2 | 58.7
OC[C@@H]1CCCN2CCCC[C@H]12 | -13.1 | -11.9 | 2.2 | 8.8 | 7.4 | 117 | 116 | 89.5 | 95.9 | 114
Cc1[nH]c2ccccc2c1CN(C)C | 35.9 | 29.2 | -17.6 | 33.5 | 32.2 | 160 | 142 | 57.8 | 92 | 160
CC[C@@H](C(=O)[C@@H](C)[C@@H](O)[C@H](C)[C@@H]1O[C@@H]([C@@H](CC)C(=O)O)CC[C@@H]1C)[C@H]1O[C@]2(C=C[C@@H](O)[C@]3(CC[C@@](C)([C@H]4CC[C@](O)(CC)[C@H](C)O4)O3)O2)[C@H](C)C[C@@H]1C | 13.4 | 11.2 | 12.3 | 18.8 | 13.6 | 112 | 54.7 | 52 | 59.8 | 9.3
COc1c2c(cc3c1OCO3)CC[N+](C)=C2 | -7.6 | 3.2 | 9.4 | 11.3 | -3.8 | 87.5 | 112 | 69.5 | 102 | 106
C#CCN(C)[C@H](C)Cc1ccccc1 | -21.4 | 2.7 | 26.7 | -20 | 21.9 | 82.8 | 97.3 | 118 | 74.9 | 117
N.N.[Cl][Pt][Cl] | 2.4 | -32.5 | 5.6 | 39.7 | 3.4 | 130 | 124 | 92.9 | 133 | 92.6
CNC(=O)Oc1ccc2c(c1)[C@]1(C)CCN(C)[C@@H]1N2C [(-)-Physostigmine] | -13.9 | -10.5 | -18.1 | -4.9 | 39.2 | 80.9 | 86.2 | 119 | 101 | 89.1
CC(C)C[C@H](CN)CC(=O)O | -34.9 | -22.9 | -6.9 | -12.5 | -2.3 | 102 | 82.6 | 116 | 121 | 109

Limited to loss of total cells (Human fetal astrocytes [1]; 22.22 µM) [%], for some of the entries so far:
Compound	loss of total cells (Human fetal astrocytes [1]; 22.22 µM) [%]
CC[C@@H](C(=O)[C@@H](C)[C@@H](O)[C@H](C)[C@@H]1O[C@@H]([C@@H](CC)C(=O)O)CC[C@@H]1C)[C@H]1O[C@]2(C=C[C@@H](O)[C@]3(CC[C@@](C)([C@H]4CC[C@](O)(CC)[C@H](C)O4)O3)O2)[C@H](C)C[C@@H]1C	13.6
COc1c2c(cc3c1OCO3)CC[N+](C)=C2	-3.8
